Data taken from patent publication US20040266811A1, “Methods for inducing regeneration, remyelination, and hypermyelination of nervous tissue” (priority 2002, published 2004).
Entries after “also recorded” stand apart in the source; their conditions may differ. At least one compound was matched to its structure with a doubt left.

Assays:
[1] = target: T1, full-length FKBP52 (GST fusion protein) (Homo sapiens, UniProt Q02790); test: 3H-FK506 competition assay on bead-immobilized GST-FKBP52; type: binding; conditions: 10 nM FK506 with 3H-dihydro-FK506, 200-fold molar excess of cold ligand
T1 construct: GST-FKBP52 was constructed by PCR amplification of full-length FKBP52 from the pcDNA3 vector; made in house; host or cells: bacteria
T1 sequence (Q02790 1-459): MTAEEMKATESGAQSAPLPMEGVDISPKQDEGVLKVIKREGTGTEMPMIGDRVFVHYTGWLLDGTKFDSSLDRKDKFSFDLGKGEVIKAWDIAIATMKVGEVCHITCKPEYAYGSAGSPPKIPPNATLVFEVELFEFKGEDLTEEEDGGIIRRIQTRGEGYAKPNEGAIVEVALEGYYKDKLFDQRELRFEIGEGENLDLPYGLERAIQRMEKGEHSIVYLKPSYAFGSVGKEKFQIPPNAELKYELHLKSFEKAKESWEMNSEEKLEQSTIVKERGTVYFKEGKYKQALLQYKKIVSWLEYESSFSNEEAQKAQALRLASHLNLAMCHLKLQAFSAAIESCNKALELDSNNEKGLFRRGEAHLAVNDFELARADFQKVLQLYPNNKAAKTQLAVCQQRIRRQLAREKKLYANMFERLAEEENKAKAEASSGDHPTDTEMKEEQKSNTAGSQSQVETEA
Protocol: There was virtually no binding of GST alone to FKBP52 (not shown). […] Full-length FKBP52 was expressed as a GST fusion protein, purified over GSH-Sepharose resin. […] After extensive washing, the bound fraction (gray bars) was determined by liquid scintillation counting. […] Values are averages (with standard deviations) of three independent experiments.
Competition of […] binding to FKBP52 was carried out on GSH Sepharose beads from GST-FKBP52 expressed in bacteria. Briefly, GST-FKBP52 was constructed by PCR amplification of full-length FKBP52 from the pcDNA3 vector (Invitrogen, Carlsbad, Calif.), with FKBP52-specific primers flanked by EcORI/BamH1 restriction endonuclease sites. A 1.4-kb fragment was subsequently ligated into EcORI/BamH1, and digested with CIP-treated pGEX-6p to obtain a GST-fusion protein. The correct reading frame was verified by DNA sequencing. GST-FKBP52 fusion proteins were generated upon induction with 0.1 mM IPTG (from a 500-ml culture), and bacterial lysates were incubated with GSH Sepharose beads (Pharmacia, Peapack, N.J.) to collect FKBP52. Following several washes, first in bacterial lysis buffer and subsequently in PBS, the FKBP52 was over 90% pure, and was used for in vitro competition studies.

[2] = system: purified chick sensory neurons (PC12 or SH-SY5Y cells); conditions: literature; cited from earlier work

In the case of `C=CC[C@@H]1/C=C(\C)C[C@H](C)C[C@H](OC)[C@H]2O[C@@](O)(C(=O)C(=O)N3CCCC[C@H]3C(=O)O[C@H](/C(C)=C/[C@@H]3CC[C@@H](O)[C@H](OC)C3)[C@H](C)[C@@H](O)CC1=O)[C@H](C)C[C@@H]2OC` [FK506, FK506 (tacrolimus), reference compound], the “competition for binding of 3H-FK506 to immobilized FKBP52” value [1] is given as “bind to FKBP52 with similar affinities; also recorded: each ligand is able to compete for binding to the receptor” and the “neurite outgrowth without other signaling molecules / with sub-threshold NGF” value [2] is given as “potentiate neurite outgrowth only when co-administered with sub-threshold concentrations of NGF”.
